# Library screening results

Amino acid sequences for entries named in this document (tags omitted).
UniProt E9BF75, entry or part of it: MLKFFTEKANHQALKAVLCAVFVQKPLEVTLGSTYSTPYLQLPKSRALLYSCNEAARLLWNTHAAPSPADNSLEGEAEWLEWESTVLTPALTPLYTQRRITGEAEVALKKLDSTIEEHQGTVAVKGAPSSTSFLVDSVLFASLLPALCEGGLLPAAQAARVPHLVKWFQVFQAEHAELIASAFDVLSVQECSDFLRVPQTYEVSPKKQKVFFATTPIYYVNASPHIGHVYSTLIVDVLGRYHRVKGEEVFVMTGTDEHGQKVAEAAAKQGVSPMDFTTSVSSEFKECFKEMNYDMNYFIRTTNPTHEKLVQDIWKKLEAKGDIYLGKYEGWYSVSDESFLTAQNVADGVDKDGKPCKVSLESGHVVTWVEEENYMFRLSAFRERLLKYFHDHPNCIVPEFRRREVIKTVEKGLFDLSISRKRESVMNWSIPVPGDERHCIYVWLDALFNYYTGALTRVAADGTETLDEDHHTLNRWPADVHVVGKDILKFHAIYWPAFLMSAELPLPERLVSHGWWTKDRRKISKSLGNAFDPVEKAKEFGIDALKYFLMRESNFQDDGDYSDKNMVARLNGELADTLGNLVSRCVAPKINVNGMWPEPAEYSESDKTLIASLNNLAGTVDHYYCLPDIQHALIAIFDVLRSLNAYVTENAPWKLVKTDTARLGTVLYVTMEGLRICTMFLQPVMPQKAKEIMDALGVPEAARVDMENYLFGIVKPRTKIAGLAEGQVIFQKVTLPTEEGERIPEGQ

Data taken from ChEMBL document CHEMBL3988442, “University of Dundee, Small-Polar-MMV Screening Library” (2021).

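Methionyl-tRNA synthetase (putative), Leishmania donovani (UniProt E9BF75). Primary screen of methionyl-tRNA synthetase; the read-out is not stated. The test concentration is not given. Values are per cent inhibition. Size under these conditions: about 68,000 compounds, about 24 of them at 50% or above in at least one test.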

Results are percentages, as filed.
How 0% and 100% were set is not recorded. Most values in the screen are low, and negative values occur.
This is an unselected part of the compounds tested.

| # | Compound | Inhibition |
|---|---|---|
| 1 | `CNCC[C@H]1CC(C)(C)Oc2ccc(OCC3CC3)cc21` | 14.81 |
| 2 | `CN(CC(=O)NC(C)(C)C)Cc1nc(-c2ccccc2)c[nH]1` | -5.282 |
| 3 | `Cc1nnc2n1CCN(CCOc1ccccc1C#N)C2` | 0.2865 |
| 4 | `O=C(c1ccc(S(=O)(=O)N2CCNCC2)cc1)N1CCCC(O)C1` (stereo not drawn) | 3.217 |
| 5 | `COc1ccc(S(=O)(=O)NCCCc2nnc3nc(C)cc(C)n23)cc1` | 8.401 |
| 6 | `O=C(NCCCOC1CCOC1)NC(C1CC1)C1CC1` (stereo not drawn) | 8.865 |
| 7 | `CN(c1ncnc2c1CCC2)C1CCCN(c2cccnn2)C1` (stereo not drawn) | 8.361 |
| 8 | `CC(=O)Nc1nc(C(=O)N2CCCC(n3nc(C)cc3C)C2)cs1` (stereo not drawn) | -1.575 |
| 9 | `CCC(O)CN1CCN(C(=O)c2sccc2C2CC2)CC1` (stereo not drawn) | 15.3 |
| 10 | `COCC1CC2(CCN(S(=O)(=O)C3CC3)CC2)CN1c1ncccn1` (stereo not drawn) | 2.222 |
| 11 | `Cc1noc(C)c1C(=O)N(Cc1ccsc1)CC1CCCO1` (stereo not drawn) | 11.24 |
| 12 | `CC[C@H]1COCCN1C(=O)c1cnc(-c2ccccc2)nc1C` | 18.56 |
| 13 | `Cc1cc(N2CCOCC2)ccc1NC(C)c1nc(C(C)C)no1` (stereo not drawn) | 2.439 |
| 14 | `Cc1nc(C)c(CCNC(=O)NC2CC(=O)N(C(C)(C)C)C2)s1` (stereo not drawn) | 9.157 |
| 15 | `CS(=O)(=O)CC(=O)N1C[C@H]2CCC[C@@]2(COCc2ccccn2)C1` | 17.17 |
| 16 | `Cc1cc(OC(F)F)c(C(=O)N2CCC(N(C)C)CC2)s1` | 5.362 |
| 17 | `COc1nn(C)c2c1CCCN(C(=O)c1cccc(C)n1)C2` | 13.44 |
| 18 | `Cc1nc(N(CCC(N)=O)Cc2ccccc2)c2nc(C)oc2n1` | 4.693 |
| 19 | `C[C@@H](NC(=O)c1ccc(Cl)cc1)c1onc(-c2cccnc2)c1C(=O)O` | 15.79 |
| 20 | `Cn1ccnc(Nc2ccc3c(c2)CCN3C(=O)c2ccoc2)c1=O` | 16.08 |
| 21 | `CCn1ccnc1CN1CCCN(C(=O)Cc2csc(C)n2)CC1` | -14.21 |
| 22 | `Cc1ccsc1CNC(=O)Cc1c(C)nc2c(c1C)c(=O)[nH]n2C` | 12.5 |
| 23 | `COCc1ccc(C(=O)N2CCCN(Cc3ccc(F)cc3)CC2)s1` | 16.77 |
| 24 | `CCO[C@H]1CN(C(=O)c2ccnnc2)[C@@H]2COC[C@H]12` | 4.575 |
| 25 | `O=C(CCc1ccc(Cl)s1)NCc1nnc2n1CCCCC2` | 17.14 |
| 26 | `CC(C)(C)C(=O)NCCC(=O)NCCc1ccn(-c2ccccc2)n1` | 18.58 |
| 27 | `O=S(=O)(N1CCOCC1)N1CCCCC1CCn1cccn1` (stereo not drawn) | 4.336 |
| 28 | `Cn1cc(CN2CC[C@H]3OCC[C@@H](C(=O)Nc4cnccn4)[C@@H]3C2)cn1` | 10.09 |
| 29 | `Cc1noc(C)c1CN(C)Cc1csc(-c2ccc(F)cc2)n1` | 6.793 |
| 30 | `CC(C)NC(=O)N1CCN(S(=O)(=O)C2CC2)CC2(CNC(=O)C2)C1` (stereo not drawn) | 19.61 |
| 31 | `CC1(C)[C@H]2CC=C(CN3CCCn4nc(C(=O)NCCO)cc4C3)[C@@H]1C2` | 1.423 |
| 32 | `N#Cc1ccc(N2CCCN(CC(N)=O)CC2)cc1` | 11.88 |
| 33 | `Cn1cnnc1-c1cncc(NCc2cccc3c2OCO3)c1` | 13.09 |
| 34 | `O=C(CN(Cc1cccs1)c1ccc(F)cc1)NC1CCOCC1` | 3.896 |
| 35 | `NCC1CN(C(=O)Cn2ncc(N3CCCCC3)cc2=O)CCO1` (stereo not drawn) | 9.254 |
| 36 | `CN(C)S(=O)(=O)N1CCC[C@]2(C[C@@H](Oc3ncccc3F)CO2)C1` | 7.19 |
| 37 | `N#Cc1ccccc1N1CCCN(C(=O)CCc2ccsc2)CC1` | 7.229 |
| 38 | `Cc1nc(CN2CCCC(Cn3cc(CCO)nn3)C2)c2ccccn12` (stereo not drawn) | 1.099 |
| 39 | `COc1ccc(Cc2noc(-c3ccc(NC(C)CO)nc3)n2)cc1` (stereo not drawn) | 11.24 |
| 40 | `CS(=O)(=O)NCC1CCCN(C(=O)c2cccc(F)c2)C1` (stereo not drawn) | 13.19 |
| 41 | `COC(=O)c1ccc(C2CC(=O)Nc3c2cnn3C)cc1` (stereo not drawn) | -0.8621 |
| 42 | `Cc1csc(C2(NCc3ccc(OCC(F)F)cc3)CCCC2)n1` | 14.8 |
| 43 | `Cc1n[nH]c(SCC(=O)NC(c2ccncc2)C(C)C)n1` (stereo not drawn) | -1.389 |
| 44 | `CCC(Nc1cccc(OC)c1)C(=O)N(CCO)Cc1nccs1` (stereo not drawn) | 15.47 |
| 45 | `CN(C)c1ccc2c(c1)CN(C(=O)c1ccco1)C2c1cnco1` (stereo not drawn) | 8.696 |

The first 4 entries again:

{"compound": "CNCC[C@H]1CC(C)(C)Oc2ccc(OCC3CC3)cc21", "Inhibition": 14.81}
{"compound": "CN(CC(=O)NC(C)(C)C)Cc1nc(-c2ccccc2)c[nH]1", "Inhibition": -5.282}
{"compound": "Cc1nnc2n1CCN(CCOc1ccccc1C#N)C2", "Inhibition": 0.2865}
{"compound": "O=C(c1ccc(S(=O)(=O)N2CCNCC2)cc1)N1CCCC(O)C1", "stereo": "stereo not drawn", "Inhibition": 3.217}